Measurements published in PMC9308790.

Protein sequences, listed by entry. Tags and fused reporters are not part of them.
UniProt P26450: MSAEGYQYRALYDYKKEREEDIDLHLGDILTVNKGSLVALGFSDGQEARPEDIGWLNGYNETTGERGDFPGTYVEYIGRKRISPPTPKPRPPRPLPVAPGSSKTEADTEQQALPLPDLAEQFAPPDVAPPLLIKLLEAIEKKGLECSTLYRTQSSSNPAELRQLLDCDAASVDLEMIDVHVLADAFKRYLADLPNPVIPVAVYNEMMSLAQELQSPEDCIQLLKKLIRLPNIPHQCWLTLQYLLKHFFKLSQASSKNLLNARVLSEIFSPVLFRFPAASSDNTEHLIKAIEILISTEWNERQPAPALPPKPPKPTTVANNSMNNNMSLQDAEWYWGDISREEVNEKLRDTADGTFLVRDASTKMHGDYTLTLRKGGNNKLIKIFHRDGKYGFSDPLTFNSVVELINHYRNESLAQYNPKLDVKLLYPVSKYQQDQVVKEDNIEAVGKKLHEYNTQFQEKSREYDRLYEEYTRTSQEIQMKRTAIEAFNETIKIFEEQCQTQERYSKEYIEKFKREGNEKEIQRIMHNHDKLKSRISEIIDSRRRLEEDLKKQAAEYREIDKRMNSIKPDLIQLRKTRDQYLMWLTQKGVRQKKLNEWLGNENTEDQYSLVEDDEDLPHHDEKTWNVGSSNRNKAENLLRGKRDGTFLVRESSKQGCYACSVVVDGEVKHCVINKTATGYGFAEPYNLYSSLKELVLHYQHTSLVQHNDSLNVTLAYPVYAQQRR
UniProt Q61510: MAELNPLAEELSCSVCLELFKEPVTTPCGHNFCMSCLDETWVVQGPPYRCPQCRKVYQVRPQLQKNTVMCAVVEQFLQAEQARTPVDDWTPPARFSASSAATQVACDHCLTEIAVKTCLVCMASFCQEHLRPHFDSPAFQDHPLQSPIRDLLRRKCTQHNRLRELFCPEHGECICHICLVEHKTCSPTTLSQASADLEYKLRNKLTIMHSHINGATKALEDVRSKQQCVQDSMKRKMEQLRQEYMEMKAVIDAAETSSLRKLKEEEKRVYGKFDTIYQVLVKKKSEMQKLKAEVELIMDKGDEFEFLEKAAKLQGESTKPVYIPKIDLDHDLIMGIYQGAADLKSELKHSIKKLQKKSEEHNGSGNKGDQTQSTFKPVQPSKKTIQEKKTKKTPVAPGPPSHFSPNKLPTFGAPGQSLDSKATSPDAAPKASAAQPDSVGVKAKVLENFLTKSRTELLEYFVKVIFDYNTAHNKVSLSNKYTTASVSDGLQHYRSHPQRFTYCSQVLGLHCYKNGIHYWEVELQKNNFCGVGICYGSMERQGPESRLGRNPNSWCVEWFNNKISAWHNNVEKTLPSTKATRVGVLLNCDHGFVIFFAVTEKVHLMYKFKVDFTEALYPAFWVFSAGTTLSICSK
UniProt Q14258: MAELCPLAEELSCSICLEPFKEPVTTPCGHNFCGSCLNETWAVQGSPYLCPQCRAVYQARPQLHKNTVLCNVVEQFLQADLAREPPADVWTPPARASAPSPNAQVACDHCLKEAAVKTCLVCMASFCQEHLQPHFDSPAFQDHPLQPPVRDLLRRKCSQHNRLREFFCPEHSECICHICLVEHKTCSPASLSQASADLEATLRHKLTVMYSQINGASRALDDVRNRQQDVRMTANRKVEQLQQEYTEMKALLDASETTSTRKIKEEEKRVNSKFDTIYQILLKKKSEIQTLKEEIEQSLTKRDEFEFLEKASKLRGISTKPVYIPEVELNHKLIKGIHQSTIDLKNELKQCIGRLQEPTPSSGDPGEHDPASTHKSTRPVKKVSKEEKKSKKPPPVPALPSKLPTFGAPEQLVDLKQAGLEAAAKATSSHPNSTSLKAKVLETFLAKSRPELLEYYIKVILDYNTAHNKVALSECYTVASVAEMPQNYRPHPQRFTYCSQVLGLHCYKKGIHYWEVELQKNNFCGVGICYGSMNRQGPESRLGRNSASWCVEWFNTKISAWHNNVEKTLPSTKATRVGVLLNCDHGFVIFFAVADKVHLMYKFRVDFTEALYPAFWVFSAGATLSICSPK

Key:
3Flag-p85α = 3Flag-p85α (UniProt P26450); assay: affinity purification with mass spectrometry; HL-1/HEK293T cells transfected with GV314-3Flag-TRIM25 or GV314-3Flag-p85α for 48 h; lysed in Co-IP buffer (50 mM Tris-HCl, 150 mM NaCl, 5 mM EDTA, 1% NP-40, pH 7.6); anti-Flag affinity gel overnight at 4 °C; bound proteins analysed by mass spectrometry
[1] = target: 3Flag-TRIM25 (tripartite motif 25) (UniProt Q61510); assay: as above

| Substance | binding (3Flag-p85α) | binding [1] |
| --- | --- | --- |
| TRIM25, endogenous in HEK293T cells (from UniProt Q14258 1-630) | binds | – |
| p85α (regulatory subunit of PI3K), endogenous in HL-1 cells (from UniProt P26450 1-724) | – | binds |

Results are given in words; binding and its absence hold for the method and conditions named. Binding seen in cells or lysates may run through a third protein. These calls come from enrichment with a bait or labelling near it, and not all partners need be listed.
